Reference: patent EP0555488A1, “PYRIMIDINE OR TRIAZINE DERIVATIVE AND HERBICIDE” (KUMIAI CHEMICAL INDUSTRY CO., LTD., priority 1991, dated 1993)
At least one read-out could not be matched to a standard name with certainty.

Legend:
Assay type in all cases: in vivo
bulrush (Sc) = test: Test Example 1: herbicidal effect test by paddy field soil treatment; conditions: flooded 3 cm, wettable powder, 100 g/10 a active ingredient, evaluated 21st day after treatment
[1] = system: edible barnyardgrass (Ec); test: Test Example 3: herbicidal effect test by upland field foliage treatment; conditions: upland field foliage treatment of plants cultured 2 weeks, wettable powder, 100 g/10 a active ingredient, evaluated 14th day after treatment
[2] = system: edible barnyardgrass (Ec); test: Test Example 2: herbicidal effect test by upland field soil treatment; conditions: wettable powder, 100 g/10 a active ingredient, evaluated 21st day after treatment
barnyardgrass (Ec) = test: Test Example 1: herbicidal effect test by paddy field soil treatment; conditions: flooded 3 cm, wettable powder, 100 g/10 a active ingredient, evaluated 21st day after treatment
rice flatsedge (Ci) [3] = test: Test Example 2: herbicidal effect test by upland field soil treatment; conditions: wettable powder, 100 g/10 a active ingredient, evaluated 21st day after treatment
slender amaranth (Am) [4] = test: as above; conditions: wettable powder, 100 g/10 a active ingredient, evaluated 21st day after treatment
pale smartweed (Po) [5] = test: Test Example 3: herbicidal effect test by upland field foliage treatment; conditions: upland field foliage treatment of plants cultured 2 weeks, wettable powder, 100 g/10 a active ingredient, evaluated 14th day after treatment
lambsquarters (Ch) [6] = test: Test Example 2: herbicidal effect test by upland field soil treatment; conditions: wettable powder, 100 g/10 a active ingredient, evaluated 21st day after treatment
pale smartweed (Po) [7] = test: as above; conditions: wettable powder, 100 g/10 a active ingredient, evaluated 21st day after treatment
lambsquarters (Ch) [8] = test: Test Example 3: herbicidal effect test by upland field foliage treatment; conditions: upland field foliage treatment of plants cultured 2 weeks, wettable powder, 100 g/10 a active ingredient, evaluated 14th day after treatment
monochoria (Mo) = test: Test Example 1: herbicidal effect test by paddy field soil treatment; conditions: flooded 3 cm, wettable powder, 100 g/10 a active ingredient, evaluated 21st day after treatment
rice flatsedge (Ci) [9] = test: Test Example 3: herbicidal effect test by upland field foliage treatment; conditions: upland field foliage treatment of plants cultured 2 weeks, wettable powder, 100 g/10 a active ingredient, evaluated 14th day after treatment
slender amaranth (Am) [10] = test: as above; conditions: upland field foliage treatment of plants cultured 2 weeks, wettable powder, 100 g/10 a active ingredient, evaluated 14th day after treatment

Row | SMILES | Herbicidal effect Sc (bulrush (Sc)) | Herbicidal effect Ec [1] | Herbicidal effect Ec [2] | Herbicidal effect Ec (barnyardgrass (Ec)) | Herbicidal effect Ci (rice flatsedge (Ci) [3]) | Herbicidal effect Am (slender amaranth (Am) [4]) | Herbicidal effect Po (pale smartweed (Po) [5]) | Herbicidal effect Ch (lambsquarters (Ch) [6]) | Herbicidal effect Po (pale smartweed (Po) [7]) | Herbicidal effect Ch (lambsquarters (Ch) [8]) | Herbicidal effect Mo (monochoria (Mo)) | Herbicidal effect Ci (rice flatsedge (Ci) [9]) | Herbicidal effect Am (slender amaranth (Am) [10])
1 | CC=Cc1cccc(Oc2nc(OC)cc(OC)n2)c1C(=O)OCOCC [compound 11] | 5 (at least 90% control) | 5 (at least 90% control) | 5 (at least 90% control) | 5 (at least 90% control) | 5 (at least 90% control) | 5 (at least 90% control) | 5 (at least 90% control) | 5 (at least 90% control) | 5 (at least 90% control) | 5 (at least 90% control) | 5 (at least 90% control) | 5 (at least 90% control) | 5 (at least 90% control)
2 | CC=Cc1cccc(Oc2nc(OC)cc(OC)n2)c1C(=O)OC(C)C(=O)OC (centres unmarked) [compound 13] | 5 (at least 90% control) | 4 (at least 70% and less than 90%) | 3 (at least 50% and less than 70%) | 5 (at least 90% control) | 4 (at least 70% and less than 90%) | 5 (at least 90% control) | 5 (at least 90% control) | 5 (at least 90% control) | 5 (at least 90% control) | 5 (at least 90% control) | 5 (at least 90% control) | 5 (at least 90% control) | 5 (at least 90% control)
3 | CC=Cc1cccc(Sc2nc(OC)cc(OC)n2)c1C(=O)O [compound 21] | 5 (at least 90% control) | 5 (at least 90% control) | 5 (at least 90% control) | 5 (at least 90% control) | 5 (at least 90% control) | 5 (at least 90% control) | 5 (at least 90% control) | 5 (at least 90% control) | 5 (at least 90% control) | 5 (at least 90% control) | 5 (at least 90% control) | 5 (at least 90% control) | 5 (at least 90% control)
4 | COc1cc(OC)nc(Oc2cccc(C=Cc3ccccc3)c2C(=O)O)n1 [compound 34] | 5 (at least 90% control) | 5 (at least 90% control) | 3 (at least 50% and less than 70%) | 5 (at least 90% control) | 5 (at least 90% control) | 5 (at least 90% control) | 5 (at least 90% control) | 5 (at least 90% control) | 4 (at least 70% and less than 90%) | 5 (at least 90% control) | 5 (at least 90% control) | 5 (at least 90% control) | 5 (at least 90% control)
5 | COC(=O)C=Cc1cccc(Oc2nc(OC)cc(OC)n2)c1C(=O)O [compound 36] | 5 (at least 90% control) | 4 (at least 70% and less than 90%) | 4 (at least 70% and less than 90%) | 4 (at least 70% and less than 90%) | 5 (at least 90% control) | 5 (at least 90% control) | 5 (at least 90% control) | 5 (at least 90% control) | 5 (at least 90% control) | 5 (at least 90% control) | 5 (at least 90% control) | 5 (at least 90% control) | 5 (at least 90% control)
6 | C=Cc1cccc(Oc2nc(OC)cc(OC)n2)c1C(=O)O [compound 42] | 5 (at least 90% control) | 5 (at least 90% control) | 5 (at least 90% control) | 5 (at least 90% control) | 5 (at least 90% control) | 5 (at least 90% control) | 5 (at least 90% control) | 5 (at least 90% control) | 5 (at least 90% control) | 5 (at least 90% control) | 5 (at least 90% control) | 5 (at least 90% control) | 5 (at least 90% control)
7 | COc1cc(OC)nc(Oc2cccc(C#Cc3ccccc3)c2C(=O)O)n1 [compound 46] | 5 (at least 90% control) | 5 (at least 90% control) | 4 (at least 70% and less than 90%) | 5 (at least 90% control) | 5 (at least 90% control) | 5 (at least 90% control) | 5 (at least 90% control) | 5 (at least 90% control) | 5 (at least 90% control) | 5 (at least 90% control) | 5 (at least 90% control) | 5 (at least 90% control) | 5 (at least 90% control)
8 | COc1cc(OC)nc(Oc2cccc(C=C(C)C)c2C(=O)O)n1 [compound 79] | 5 (at least 90% control) | 5 (at least 90% control) | 5 (at least 90% control) | 5 (at least 90% control) | 5 (at least 90% control) | 5 (at least 90% control) | 5 (at least 90% control) | 5 (at least 90% control) | 5 (at least 90% control) | 5 (at least 90% control) | 5 (at least 90% control) | 5 (at least 90% control) | 5 (at least 90% control)
9 | COc1cc(OC)nc(Oc2cccc(C#CC3CCCC3)c2C(=O)O)n1 [compound 112] | 5 (at least 90% control) | 5 (at least 90% control) | 5 (at least 90% control) | 5 (at least 90% control) | 5 (at least 90% control) | 5 (at least 90% control) | 5 (at least 90% control) | 5 (at least 90% control) | 5 (at least 90% control) | 5 (at least 90% control) | 5 (at least 90% control) | 5 (at least 90% control) | 5 (at least 90% control)
10 | CC=Cc1cccc(Oc2nc(OC)cc(OC(F)F)n2)c1C(=O)O [compound 137] | 5 (at least 90% control) | 5 (at least 90% control) | 4 (at least 70% and less than 90%) | 5 (at least 90% control) | 5 (at least 90% control) | 5 (at least 90% control) | 5 (at least 90% control) | 5 (at least 90% control) | 5 (at least 90% control) | 5 (at least 90% control) | 5 (at least 90% control) | 5 (at least 90% control) | 5 (at least 90% control)
11 | CCC=Cc1cccc(Oc2nc(OC)cc(OC)n2)c1C(=O)O [compound 139] | 5 (at least 90% control) | 5 (at least 90% control) | 5 (at least 90% control) | 5 (at least 90% control) | 5 (at least 90% control) | 5 (at least 90% control) | 5 (at least 90% control) | 5 (at least 90% control) | 5 (at least 90% control) | 5 (at least 90% control) | 5 (at least 90% control) | 5 (at least 90% control) | 5 (at least 90% control)
